Laboratory results as given in PMC7919836.
These are yes or no findings as the source states them, for the method shown. Binding seen in cells or lysates may run through a third protein. Some results given as binding are weak or reduced against the parent protein; the word gives no strength. Tags and fused reporters may be left off the sequences shown.

Experiments:
SFB-tagged OTUD1 (human) = biological target: T1, SFB-tagged OTUD1 (human) (UniProt Q5VV17); assay: pull-down; SFB-tagged OTUD6A, OTUD1 or GFP control transfected into HEK293T; pulled down with S-protein beads; associated endogenous Aurora-A blotted with Aurora-A-specific antibody
T1 sequence: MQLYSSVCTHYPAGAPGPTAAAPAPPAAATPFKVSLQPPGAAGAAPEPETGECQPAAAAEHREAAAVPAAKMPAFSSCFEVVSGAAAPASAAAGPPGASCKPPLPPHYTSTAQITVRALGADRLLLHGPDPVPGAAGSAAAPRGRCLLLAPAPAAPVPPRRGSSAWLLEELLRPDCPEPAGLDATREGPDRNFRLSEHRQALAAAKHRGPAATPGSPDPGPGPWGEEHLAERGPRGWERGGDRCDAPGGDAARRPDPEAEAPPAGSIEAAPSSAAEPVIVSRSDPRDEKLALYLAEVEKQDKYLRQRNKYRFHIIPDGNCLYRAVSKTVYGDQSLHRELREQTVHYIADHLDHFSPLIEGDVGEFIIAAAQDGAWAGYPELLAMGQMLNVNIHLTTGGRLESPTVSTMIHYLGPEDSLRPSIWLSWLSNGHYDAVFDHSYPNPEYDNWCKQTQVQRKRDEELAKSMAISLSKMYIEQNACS

[1] = biological target: T2, SFB-tagged OTUD6A, full-length wild type (aa 1-288) (human) (UniProt Q7L8S5); assay: as above
T2 sequence: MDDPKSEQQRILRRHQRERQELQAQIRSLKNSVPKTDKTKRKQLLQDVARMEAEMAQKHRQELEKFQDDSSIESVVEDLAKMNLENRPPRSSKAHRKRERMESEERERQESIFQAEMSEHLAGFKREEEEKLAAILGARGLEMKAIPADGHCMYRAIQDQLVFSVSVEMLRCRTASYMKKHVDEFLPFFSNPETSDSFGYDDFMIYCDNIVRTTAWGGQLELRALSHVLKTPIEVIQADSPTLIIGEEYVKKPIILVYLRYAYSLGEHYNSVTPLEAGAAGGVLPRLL

[2] = biological target: T3, MYC-tagged Aurora kinase A, full-length wild type (aa 1-403) (human) (UniProt O14965); assay: co-IP; reverse co-immunoprecipitation: MYC-tagged Aurora-A pulled down with MYC-beads from lysate of co-transfected HEK293T; SFB-tagged OTUD6A blotted with FLAG antibody
T3 sequence: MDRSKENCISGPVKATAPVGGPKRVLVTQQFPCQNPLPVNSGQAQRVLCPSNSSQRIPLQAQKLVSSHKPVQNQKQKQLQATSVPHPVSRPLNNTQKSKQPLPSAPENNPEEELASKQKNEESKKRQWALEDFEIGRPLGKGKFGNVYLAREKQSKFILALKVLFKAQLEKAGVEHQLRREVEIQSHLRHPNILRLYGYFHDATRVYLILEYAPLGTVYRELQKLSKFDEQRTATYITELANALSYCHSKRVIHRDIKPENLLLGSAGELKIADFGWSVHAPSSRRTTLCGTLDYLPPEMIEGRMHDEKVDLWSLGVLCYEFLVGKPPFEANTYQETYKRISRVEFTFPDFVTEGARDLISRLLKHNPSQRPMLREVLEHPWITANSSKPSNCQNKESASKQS

[3] = biological target: T2, SFB-tagged OTUD6A, full-length wild type (aa 1-288) (human); assay: pull-down; SFB-tagged DUB (or OTUD6A full length or truncated) and MYC-tagged Aurora-A (full length or truncated) co-transfected into HEK293T; lysis in NETN buffer; DUB pulled down with S-protein beads at 4 °C overnight; Aurora-A blotted with MYC antibody
[4] = biological target: SFB-tagged USP7 (human), Q93009; assay: as above; settings: remark: other sources report otherwise

B1: endogenous Aurora-A (protein, UniProt O14965 1-403)
chain: MDRSKENCISGPVKATAPVGGPKRVLVTQQFPCQNPLPVNSGQAQRVLCPSNSSQRIPLQAQKLVSSHKPVQNQKQKQLQATSVPHPVSRPLNNTQKSKQPLPSAPENNPEEELASKQKNEESKKRQWALEDFEIGRPLGKGKFGNVYLAREKQSKFILALKVLFKAQLEKAGVEHQLRREVEIQSHLRHPNILRLYGYFHDATRVYLILEYAPLGTVYRELQKLSKFDEQRTATYITELANALSYCHSKRVIHRDIKPENLLLGSAGELKIADFGWSVHAPSSRRTTLCGTLDYLPPEMIEGRMHDEKVDLWSLGVLCYEFLVGKPPFEANTYQETYKRISRVEFTFPDFVTEGARDLISRLLKHNPSQRPMLREVLEHPWITANSSKPSNCQNKESASKQS
SFB-tagged OTUD1 (human)
  binding: binds weakly
[1]
  binding: binds

B2: SFB-tagged OTUD6A, full-length wild type (aa 1-288) (enzyme, UniProt Q7L8S5 1-288)
chain: MDDPKSEQQRILRRHQRERQELQAQIRSLKNSVPKTDKTKRKQLLQDVARMEAEMAQKHRQELEKFQDDSSIESVVEDLAKMNLENRPPRSSKAHRKRERMESEERERQESIFQAEMSEHLAGFKREEEEKLAAILGARGLEMKAIPADGHCMYRAIQDQLVFSVSVEMLRCRTASYMKKHVDEFLPFFSNPETSDSFGYDDFMIYCDNIVRTTAWGGQLELRALSHVLKTPIEVIQADSPTLIIGEEYVKKPIILVYLRYAYSLGEHYNSVTPLEAGAAGGVLPRLL
[2]
  binding: binds

B3: MYC-tagged Aurora-A^ΔCt (C-terminal-deleted, aa 1-383) (domain or fragment, UniProt O14965 1-383)
chain: MDRSKENCISGPVKATAPVGGPKRVLVTQQFPCQNPLPVNSGQAQRVLCPSNSSQRIPLQAQKLVSSHKPVQNQKQKQLQATSVPHPVSRPLNNTQKSKQPLPSAPENNPEEELASKQKNEESKKRQWALEDFEIGRPLGKGKFGNVYLAREKQSKFILALKVLFKAQLEKAGVEHQLRREVEIQSHLRHPNILRLYGYFHDATRVYLILEYAPLGTVYRELQKLSKFDEQRTATYITELANALSYCHSKRVIHRDIKPENLLLGSAGELKIADFGWSVHAPSSRRTTLCGTLDYLPPEMIEGRMHDEKVDLWSLGVLCYEFLVGKPPFEANTYQETYKRISRVEFTFPDFVTEGARDLISRLLKHNPSQRPMLREVLEHPWI
[3]
  binding: binds

B4: MYC-tagged Aurora kinase A, full-length wild type (aa 1-403), O14965 1-403 (protein)
chain: MDRSKENCISGPVKATAPVGGPKRVLVTQQFPCQNPLPVNSGQAQRVLCPSNSSQRIPLQAQKLVSSHKPVQNQKQKQLQATSVPHPVSRPLNNTQKSKQPLPSAPENNPEEELASKQKNEESKKRQWALEDFEIGRPLGKGKFGNVYLAREKQSKFILALKVLFKAQLEKAGVEHQLRREVEIQSHLRHPNILRLYGYFHDATRVYLILEYAPLGTVYRELQKLSKFDEQRTATYITELANALSYCHSKRVIHRDIKPENLLLGSAGELKIADFGWSVHAPSSRRTTLCGTLDYLPPEMIEGRMHDEKVDLWSLGVLCYEFLVGKPPFEANTYQETYKRISRVEFTFPDFVTEGARDLISRLLKHNPSQRPMLREVLEHPWITANSSKPSNCQNKESASKQS
[4]
  binding: binds

B5: MYC-tagged Aurora-A^ΔKD (kinase-domain-deleted, aa 1-132 & 384-403) (domain or fragment, UniProt O14965)
chain: MDRSKENCISGPVKATAPVGGPKRVLVTQQFPCQNPLPVNSGQAQRVLCPSNSSQRIPLQAQKLVSSHKPVQNQKQKQLQATSVPHPVSRPLNNTQKSKQPLPSAPENNPEEELASKQKNEESKKRQWALEDTANSSKPSNCQNKESASKQS
[3]
  binding: no binding

B6: MYC-tagged Aurora-A^Nt (N-terminal only, aa 1-132) (domain or fragment, UniProt O14965 1-132)
chain: MDRSKENCISGPVKATAPVGGPKRVLVTQQFPCQNPLPVNSGQAQRVLCPSNSSQRIPLQAQKLVSSHKPVQNQKQKQLQATSVPHPVSRPLNNTQKSKQPLPSAPENNPEEELASKQKNEESKKRQWALED
[3]
  binding: no binding
